Patent US6635623
Construct, isoform or probe ends are uncertain for at least one entry. For part of these data: No signal at the amounts used counts as a negative. For part of these data: A weaker result is weaker than the reference pair of the same experiment.

The chains behind the UniProt entries cited, without tags or fusion partners. A line that says so, or that is headed by a name, gives the form on record, which may keep a tag or linker.
UniProt P04114, other isoform, or with tags, fused parts or gaps: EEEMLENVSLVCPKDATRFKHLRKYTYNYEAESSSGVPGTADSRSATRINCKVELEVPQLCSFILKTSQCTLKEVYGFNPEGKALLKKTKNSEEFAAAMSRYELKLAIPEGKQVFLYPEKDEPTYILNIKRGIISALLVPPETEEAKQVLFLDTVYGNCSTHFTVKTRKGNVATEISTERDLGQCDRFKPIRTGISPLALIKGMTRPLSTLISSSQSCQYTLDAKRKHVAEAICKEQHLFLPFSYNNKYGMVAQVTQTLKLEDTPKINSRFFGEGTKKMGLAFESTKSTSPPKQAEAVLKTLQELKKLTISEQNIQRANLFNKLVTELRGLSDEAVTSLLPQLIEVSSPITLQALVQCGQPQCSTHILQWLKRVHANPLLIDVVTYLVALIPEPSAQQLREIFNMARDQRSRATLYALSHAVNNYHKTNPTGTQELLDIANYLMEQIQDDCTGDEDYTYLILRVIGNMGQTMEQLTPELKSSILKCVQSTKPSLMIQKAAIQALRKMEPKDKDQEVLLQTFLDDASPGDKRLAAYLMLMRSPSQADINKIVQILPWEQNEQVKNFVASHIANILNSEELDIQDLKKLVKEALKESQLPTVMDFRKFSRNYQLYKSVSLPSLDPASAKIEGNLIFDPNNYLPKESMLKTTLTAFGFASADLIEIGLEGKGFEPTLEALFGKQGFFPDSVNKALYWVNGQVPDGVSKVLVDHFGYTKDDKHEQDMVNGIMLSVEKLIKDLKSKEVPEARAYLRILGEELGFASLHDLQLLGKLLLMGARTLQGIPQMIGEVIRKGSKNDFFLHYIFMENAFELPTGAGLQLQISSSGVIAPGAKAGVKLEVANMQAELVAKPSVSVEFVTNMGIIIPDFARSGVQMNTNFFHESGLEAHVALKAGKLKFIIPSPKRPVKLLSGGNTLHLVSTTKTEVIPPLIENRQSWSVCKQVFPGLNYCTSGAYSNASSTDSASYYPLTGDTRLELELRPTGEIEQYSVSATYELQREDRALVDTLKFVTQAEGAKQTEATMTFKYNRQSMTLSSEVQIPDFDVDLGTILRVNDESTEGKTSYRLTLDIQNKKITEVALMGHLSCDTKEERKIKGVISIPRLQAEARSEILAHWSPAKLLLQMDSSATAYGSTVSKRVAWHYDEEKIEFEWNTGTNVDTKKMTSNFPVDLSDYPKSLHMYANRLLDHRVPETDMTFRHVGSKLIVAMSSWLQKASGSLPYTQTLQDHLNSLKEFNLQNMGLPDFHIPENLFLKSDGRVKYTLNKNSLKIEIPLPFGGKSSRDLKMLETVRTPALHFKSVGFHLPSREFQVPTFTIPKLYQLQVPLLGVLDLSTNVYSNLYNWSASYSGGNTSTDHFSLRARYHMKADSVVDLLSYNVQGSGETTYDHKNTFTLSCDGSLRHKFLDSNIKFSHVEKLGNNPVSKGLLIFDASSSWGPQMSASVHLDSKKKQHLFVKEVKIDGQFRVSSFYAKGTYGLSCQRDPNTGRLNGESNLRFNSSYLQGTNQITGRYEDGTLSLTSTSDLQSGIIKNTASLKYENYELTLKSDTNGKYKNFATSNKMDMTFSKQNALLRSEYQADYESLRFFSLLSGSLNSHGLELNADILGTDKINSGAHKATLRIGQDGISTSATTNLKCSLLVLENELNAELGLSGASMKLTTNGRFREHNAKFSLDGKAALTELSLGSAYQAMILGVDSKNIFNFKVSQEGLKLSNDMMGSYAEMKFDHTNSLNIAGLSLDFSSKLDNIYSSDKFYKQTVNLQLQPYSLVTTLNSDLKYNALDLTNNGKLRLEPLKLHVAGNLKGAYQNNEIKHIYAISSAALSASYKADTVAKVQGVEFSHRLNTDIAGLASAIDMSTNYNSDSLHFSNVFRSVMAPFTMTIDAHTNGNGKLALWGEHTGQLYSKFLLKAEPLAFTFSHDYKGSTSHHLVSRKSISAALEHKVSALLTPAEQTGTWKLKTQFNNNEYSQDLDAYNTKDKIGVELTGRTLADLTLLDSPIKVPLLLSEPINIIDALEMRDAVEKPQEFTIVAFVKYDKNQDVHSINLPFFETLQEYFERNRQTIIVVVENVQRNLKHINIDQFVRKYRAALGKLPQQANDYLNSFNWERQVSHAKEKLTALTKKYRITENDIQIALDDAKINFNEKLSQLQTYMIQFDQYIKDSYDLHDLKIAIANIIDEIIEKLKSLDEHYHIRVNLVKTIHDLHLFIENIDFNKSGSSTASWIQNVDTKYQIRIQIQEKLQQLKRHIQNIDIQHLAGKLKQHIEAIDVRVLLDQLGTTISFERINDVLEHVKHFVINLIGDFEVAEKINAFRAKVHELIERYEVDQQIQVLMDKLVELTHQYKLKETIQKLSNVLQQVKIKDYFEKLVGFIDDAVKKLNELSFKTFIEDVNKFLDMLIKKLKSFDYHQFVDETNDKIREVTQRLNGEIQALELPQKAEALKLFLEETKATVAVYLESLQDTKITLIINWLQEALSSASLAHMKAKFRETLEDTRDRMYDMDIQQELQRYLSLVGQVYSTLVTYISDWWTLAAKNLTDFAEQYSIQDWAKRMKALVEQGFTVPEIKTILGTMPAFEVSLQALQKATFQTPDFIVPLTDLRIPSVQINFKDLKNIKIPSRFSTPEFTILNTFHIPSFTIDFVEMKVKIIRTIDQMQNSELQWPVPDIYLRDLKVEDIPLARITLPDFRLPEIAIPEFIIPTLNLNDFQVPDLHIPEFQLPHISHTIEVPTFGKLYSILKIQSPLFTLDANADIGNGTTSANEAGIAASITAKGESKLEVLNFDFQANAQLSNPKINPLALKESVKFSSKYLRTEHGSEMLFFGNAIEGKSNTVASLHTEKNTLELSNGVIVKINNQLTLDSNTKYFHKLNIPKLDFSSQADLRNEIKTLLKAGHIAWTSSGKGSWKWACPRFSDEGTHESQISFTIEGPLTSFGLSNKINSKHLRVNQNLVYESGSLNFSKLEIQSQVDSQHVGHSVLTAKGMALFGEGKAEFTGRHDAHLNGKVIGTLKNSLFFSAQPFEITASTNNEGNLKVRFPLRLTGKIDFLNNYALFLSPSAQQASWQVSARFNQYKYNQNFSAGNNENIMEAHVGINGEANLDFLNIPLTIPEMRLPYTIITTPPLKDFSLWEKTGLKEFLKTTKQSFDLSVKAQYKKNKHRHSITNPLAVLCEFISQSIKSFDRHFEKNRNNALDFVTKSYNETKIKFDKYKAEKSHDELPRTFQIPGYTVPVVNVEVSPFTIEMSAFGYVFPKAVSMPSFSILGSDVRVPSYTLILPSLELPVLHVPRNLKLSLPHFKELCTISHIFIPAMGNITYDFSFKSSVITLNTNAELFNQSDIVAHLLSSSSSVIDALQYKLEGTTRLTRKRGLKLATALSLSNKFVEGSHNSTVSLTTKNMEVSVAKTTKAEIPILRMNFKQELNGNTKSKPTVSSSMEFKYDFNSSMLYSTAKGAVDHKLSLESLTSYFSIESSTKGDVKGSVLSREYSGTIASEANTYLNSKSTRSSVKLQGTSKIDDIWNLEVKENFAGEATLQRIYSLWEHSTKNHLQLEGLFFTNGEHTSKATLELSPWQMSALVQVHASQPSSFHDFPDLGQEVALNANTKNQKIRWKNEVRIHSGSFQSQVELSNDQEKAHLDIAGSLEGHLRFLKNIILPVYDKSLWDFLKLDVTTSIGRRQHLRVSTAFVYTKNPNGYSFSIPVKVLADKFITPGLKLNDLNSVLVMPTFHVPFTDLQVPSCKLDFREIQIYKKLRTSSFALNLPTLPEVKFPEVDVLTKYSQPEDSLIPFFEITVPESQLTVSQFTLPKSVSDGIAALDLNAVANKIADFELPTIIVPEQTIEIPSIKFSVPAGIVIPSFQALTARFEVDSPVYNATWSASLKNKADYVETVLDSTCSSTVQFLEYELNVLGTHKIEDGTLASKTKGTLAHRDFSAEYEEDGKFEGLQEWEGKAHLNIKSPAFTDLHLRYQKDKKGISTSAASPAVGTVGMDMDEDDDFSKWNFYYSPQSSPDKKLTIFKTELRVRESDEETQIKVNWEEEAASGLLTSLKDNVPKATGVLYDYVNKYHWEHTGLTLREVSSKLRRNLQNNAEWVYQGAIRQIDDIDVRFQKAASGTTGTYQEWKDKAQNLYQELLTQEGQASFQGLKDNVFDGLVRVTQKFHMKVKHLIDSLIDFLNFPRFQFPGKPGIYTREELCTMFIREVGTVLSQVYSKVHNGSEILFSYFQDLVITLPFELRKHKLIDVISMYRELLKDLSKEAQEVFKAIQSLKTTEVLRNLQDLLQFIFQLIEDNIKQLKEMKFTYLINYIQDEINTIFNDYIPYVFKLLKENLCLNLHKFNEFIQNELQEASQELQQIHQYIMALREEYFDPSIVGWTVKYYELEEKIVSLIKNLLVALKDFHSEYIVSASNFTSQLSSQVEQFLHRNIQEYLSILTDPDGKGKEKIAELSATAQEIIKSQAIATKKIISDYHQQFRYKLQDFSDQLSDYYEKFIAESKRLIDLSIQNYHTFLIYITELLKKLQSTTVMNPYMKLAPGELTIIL

How the values were obtained:
Assay in all cases: EMSA
HDL (Homo sapiens) = conditions: HDL did not bind any oligo tested; purified native protein; protein details: plasma lipoprotein particle without apoB-100
LDL (Mus musculus) = conditions: 15 mM MgCl2; purified native protein; protein details: plasma lipoprotein particle
[1] = molecular target: LDL (apoB-100-containing) (Homo sapiens) (UniProt P04114); conditions: purified native protein
LDL (baboon) = conditions: 15 mM MgCl2; purified native protein; protein details: plasma lipoprotein particle
VLDL (Homo sapiens) = conditions: purified native protein, protein details: plasma lipoprotein particle containing apoB-100

| Sequence | binding result (HDL (Homo sapiens)) | binding result (LDL (Mus musculus)) | binding result ([1]; agarose gel shift, Tris pH 7.4, 100-154 mM NaCl, 15 mM MgCl2, RT) | binding result (LDL (baboon)) | binding result (VLDL (Homo sapiens); lower affinity than LDL) | binding result ([1]; agarose gel shift, 15 mM MgCl2) | binding result ([1]; greater affinity than for plasmid lacking the promoter) | binding result (VLDL (Homo sapiens)) |
| --- | --- | --- | --- | --- | --- | --- | --- | --- |
| GATCCAAATCACCCACTGCAACTCCTCCCCCTGCG (double strand) [SRE-2A] | no binding | no binding | binds | no binding | binds more weakly | – | – | – |
| GATCCATCCAATTGGGCAATCAGGAG (double strand) [E/C-1A] | no binding | no binding | – | no binding | binds more weakly | binds | – | – |
| GATCCGGTCTCCAATTGG (double strand) [FAS-1A] | no binding | no binding | – | no binding | binds more weakly | binds | – | – |
| GATCCTCGGGAAAGGGAAACCGAAACTGAAGCCG (double strand) [ISRE-1A] | no binding | no binding | – | – | binds more weakly | binds | – | – |
| GGATCTGACGGTTCACTAAACCAGCTCTGCTTATATAGACCTCCCACCGTACACGCCTACCGCCCATTTGCGTCAATGGGGCGGAGTTGTTACGACATTTTGGAAAGTCCCGTTGATTTTGGTGCCAAAACAAACTCCATTGACGTCAATGGGGTGGAGACTTGGAAATCCCCGTGAGTCAAACCGCTATCCACGCCCATTGATGTACTGCCAAAACCGCATCACCATGGTAATAGCGATGACTAATACGTAGATGTACTGCCAAGTAGGAAAGTCCCATAAGGTCATGTACTGGGCATAATGCCAGGCGGGCCATTTACCGTCATTGACGTCAATAGGGGGCGTACTTGGCATATGATACACTTGATGTACTGCCAAGTGGGCAGTTTACCGTAAATACTCCACCCATTGACGTCAATGGAAAGTCCCTATTGGCGTTACTATGGGAACATACGTCATTATTGACGTCAATGGGCGGGGGTCGTTGGGCGGTCAGCCAGGCGGGCCATTTACCGTAAGTTATGTAACGCGGAACTCCATATATGGGCTATGAACTAATGACCCCGTAATTGATTACTATTAATAACTA (double strand) [HCMV IE promoter region] | – | – | – | – | – | – | binds | binds |
